The record followed here is article PMC5805732.

By UniProt entry, the sequences of proteins in these tests, tags left out.
UniProt P50533: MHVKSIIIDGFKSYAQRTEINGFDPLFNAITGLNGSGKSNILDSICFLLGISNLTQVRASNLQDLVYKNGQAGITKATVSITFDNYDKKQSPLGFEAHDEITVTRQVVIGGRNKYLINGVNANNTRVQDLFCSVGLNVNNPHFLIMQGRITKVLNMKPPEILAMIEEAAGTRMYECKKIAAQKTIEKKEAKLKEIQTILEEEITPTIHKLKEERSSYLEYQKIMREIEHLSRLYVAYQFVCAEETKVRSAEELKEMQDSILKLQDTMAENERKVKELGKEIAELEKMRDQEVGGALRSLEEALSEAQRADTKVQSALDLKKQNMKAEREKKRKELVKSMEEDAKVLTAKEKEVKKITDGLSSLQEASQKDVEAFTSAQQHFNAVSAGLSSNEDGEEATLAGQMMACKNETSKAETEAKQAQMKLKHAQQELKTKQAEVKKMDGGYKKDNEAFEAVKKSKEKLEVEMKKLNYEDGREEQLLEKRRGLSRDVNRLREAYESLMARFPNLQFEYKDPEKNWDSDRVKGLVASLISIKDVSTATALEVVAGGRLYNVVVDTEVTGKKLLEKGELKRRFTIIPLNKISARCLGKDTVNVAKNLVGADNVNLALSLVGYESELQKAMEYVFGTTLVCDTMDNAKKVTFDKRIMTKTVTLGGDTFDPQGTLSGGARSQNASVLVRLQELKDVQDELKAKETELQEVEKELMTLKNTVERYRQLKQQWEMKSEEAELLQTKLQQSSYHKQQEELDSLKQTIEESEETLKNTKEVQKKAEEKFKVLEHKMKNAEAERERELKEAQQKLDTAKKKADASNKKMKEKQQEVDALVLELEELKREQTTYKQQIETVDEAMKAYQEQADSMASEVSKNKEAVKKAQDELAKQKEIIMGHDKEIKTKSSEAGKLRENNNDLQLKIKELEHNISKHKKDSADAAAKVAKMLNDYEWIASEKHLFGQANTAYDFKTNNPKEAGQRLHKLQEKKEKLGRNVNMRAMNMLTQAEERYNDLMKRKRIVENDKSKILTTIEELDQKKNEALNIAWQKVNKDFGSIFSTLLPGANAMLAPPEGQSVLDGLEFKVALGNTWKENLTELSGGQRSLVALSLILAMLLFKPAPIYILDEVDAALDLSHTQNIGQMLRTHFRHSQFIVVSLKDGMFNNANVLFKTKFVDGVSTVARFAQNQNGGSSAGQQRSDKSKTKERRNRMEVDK
UniProt Q6NTJ3: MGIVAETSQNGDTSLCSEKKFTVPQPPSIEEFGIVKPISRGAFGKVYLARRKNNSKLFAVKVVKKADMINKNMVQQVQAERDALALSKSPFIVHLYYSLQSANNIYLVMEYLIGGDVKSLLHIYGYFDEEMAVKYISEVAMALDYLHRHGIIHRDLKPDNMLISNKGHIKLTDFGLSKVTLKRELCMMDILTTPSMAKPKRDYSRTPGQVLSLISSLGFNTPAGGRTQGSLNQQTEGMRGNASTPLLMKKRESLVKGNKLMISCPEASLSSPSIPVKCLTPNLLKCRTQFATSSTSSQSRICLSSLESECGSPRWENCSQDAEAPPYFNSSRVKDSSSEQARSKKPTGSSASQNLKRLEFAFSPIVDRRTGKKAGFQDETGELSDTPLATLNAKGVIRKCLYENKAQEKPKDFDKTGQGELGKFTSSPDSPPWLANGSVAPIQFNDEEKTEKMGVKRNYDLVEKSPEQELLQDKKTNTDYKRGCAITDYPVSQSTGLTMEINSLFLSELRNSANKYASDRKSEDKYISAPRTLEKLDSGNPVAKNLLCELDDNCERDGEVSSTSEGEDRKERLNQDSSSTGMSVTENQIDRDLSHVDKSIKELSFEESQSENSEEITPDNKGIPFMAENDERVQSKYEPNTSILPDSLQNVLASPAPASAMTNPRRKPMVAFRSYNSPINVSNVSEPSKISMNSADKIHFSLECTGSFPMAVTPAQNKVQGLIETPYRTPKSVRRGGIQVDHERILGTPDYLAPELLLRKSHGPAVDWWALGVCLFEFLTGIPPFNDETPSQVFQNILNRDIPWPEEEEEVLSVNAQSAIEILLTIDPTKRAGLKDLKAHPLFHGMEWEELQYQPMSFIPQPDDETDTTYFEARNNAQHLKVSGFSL
UniProt P70032: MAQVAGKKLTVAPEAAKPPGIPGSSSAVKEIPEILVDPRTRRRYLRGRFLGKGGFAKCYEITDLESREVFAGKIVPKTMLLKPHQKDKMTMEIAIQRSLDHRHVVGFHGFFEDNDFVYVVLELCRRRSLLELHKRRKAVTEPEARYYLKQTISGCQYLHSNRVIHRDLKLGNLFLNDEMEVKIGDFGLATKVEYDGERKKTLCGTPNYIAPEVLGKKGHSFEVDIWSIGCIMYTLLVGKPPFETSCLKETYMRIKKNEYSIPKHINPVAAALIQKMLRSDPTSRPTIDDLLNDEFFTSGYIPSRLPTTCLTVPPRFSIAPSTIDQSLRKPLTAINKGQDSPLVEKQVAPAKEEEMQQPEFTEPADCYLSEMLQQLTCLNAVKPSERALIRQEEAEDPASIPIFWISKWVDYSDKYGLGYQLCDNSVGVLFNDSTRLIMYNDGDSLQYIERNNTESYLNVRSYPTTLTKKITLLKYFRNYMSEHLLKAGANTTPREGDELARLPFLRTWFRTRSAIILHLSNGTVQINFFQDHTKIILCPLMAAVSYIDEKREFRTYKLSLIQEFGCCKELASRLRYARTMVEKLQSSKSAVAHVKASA

The chains are these.
T1: MBP-B55β (Xenopus) (UniProt A1L3L9)
T1 sequence: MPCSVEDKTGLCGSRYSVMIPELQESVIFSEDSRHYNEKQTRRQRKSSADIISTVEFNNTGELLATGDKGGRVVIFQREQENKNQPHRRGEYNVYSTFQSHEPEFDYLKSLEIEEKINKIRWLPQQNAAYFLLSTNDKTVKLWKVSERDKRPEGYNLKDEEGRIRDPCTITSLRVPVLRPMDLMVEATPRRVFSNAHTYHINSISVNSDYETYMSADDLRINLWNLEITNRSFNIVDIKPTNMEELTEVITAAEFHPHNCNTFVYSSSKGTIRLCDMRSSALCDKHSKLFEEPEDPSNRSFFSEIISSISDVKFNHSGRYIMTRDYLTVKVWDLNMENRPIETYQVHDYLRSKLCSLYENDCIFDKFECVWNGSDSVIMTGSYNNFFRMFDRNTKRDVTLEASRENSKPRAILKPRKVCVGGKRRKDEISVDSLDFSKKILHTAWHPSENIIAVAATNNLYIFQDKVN

B1: DNA replication protein Mcm2 (protein, UniProt P55861 1-886)
chain: MADSSESFNIATSPRAGSRRDALTSSPGRDLPPFEDESEGMFGDGVVPEEEEDGEELIGDAMERDYRPISELDRYEVEGLDDEEDVEDLTASQREAAEQSMRMRDREMGRELGRMRRGLLYDSDEEEEDRPARKRRMAERAAEGAPEEDEEMIESIENLEDMKGHTVREWVSMAATRLEIYHRFKNFLRTHVDEHGHNVFKEKISDMCKENKESLPVNYEDLAAREHVLAYFLPEAPAEMLKIFDEAAKEVVLVMYPKYDRIAREIHVRISHLPLVEELRSLRQLHLNQLIRTSGVVTCCTGVLPQLSMVKYNCNKCNFILGPFFQSQNQEVRPGSCPECQSFGPFEINMEETVYQNYQRITIQESPGKVAAGRLPRSKDAILLADLVDSCKPGDEIELTGIYHNNYDGSLNTANGFPVFATVILANHITKKDDKVAVGELTDEDVKAIVALSKDERIGERIFASIAPSIYGHEDIKRGLALALFGGEAKNPGGKHKVRGDINVLLCGDPGTAKSQFLKYVEKVASRAVFTTGQGASAVGLTAYVQRHPVTKEWTLEAGALVLADRGVCLIDEFDKMNDQDRTSIHEAMEQQSISISKAGIVTSLQARCTVIAASNPIGGRYDPSLTFSENVDLTEPIVSRFDILCVVRDTVDPVQDEMLARFVVSSHIKHHPSSKDIANGDAAEFALPNTFGVEALPQEVLKKYIMYAKEKIRPKLNQMDQDKVAKMYSDLRKESMATGSIPITVRHIESMIRMAEAHARMHLRDYVVEDDVNMAIRVMLESFIDTQKFSVMRSMRKTFARYLAFRRDNNELLLFVLKQLIAEQVTYQRNRYGAQQDTIEVPEKDLVDKARQINIHNLSAFYDSDLFKMNKFTHDVKKKLIIQQF

No constants are given. Whether binding was seen depends on the method and setting. In cells and extracts the contact can be indirect. Binding can be weak; no strength is given. For some of these results: Tags and fused reporters may be left off the sequences shown.

For the first assay, the target named is MBP-B55α (Xenopus) (UniProt Q6IRD3). Description: pull-down; about 10 μg MBP-B55 on amylose beads (20 μl) incubated in interphase Xenopus egg extracts (40 μl), 30 min, room temperature; immunoblotting; control: amylose beads not conjugated with proteins; only the target purified. In general terms: In western blotting, separated proteins are transferred to a membrane and probed.
With “Condensin subunit Smc2 (from UniProt P50533 1-1203)”, the binding result is “no binding”.

For “mitotic kinase Mastl (from UniProt Q6NTJ3 1-887) (enzyme)”, the binding entry was “binds”.

For the molecule “mitotic kinase Plk1 (from UniProt P70032 1-598) (enzyme)”, the binding result is “binds”.

With B1, the binding result was “binds”.

The next assay deals with T1, MBP-B55β (Xenopus). Described as above.
Consider “catalytic subunit of PP2A (Xenopus (endogenous in egg extracts)) (enzyme)”, for which the binding entry is “binds”.

Turning to “chromosomal passenger complex (CPC) component Incenp (Xenopus (endogenous in egg extracts))”, the binding entry is recorded as “binds”.

For the molecule “ubiquitin E3 ligase Ube3a (Xenopus (endogenous in egg extracts)) (enzyme)”, the binding result is “binds”.
